# Results from article PMC7819943, “Rice protein-binding microarrays: a tool to detect cis-acting elements near promoter regions in rice”.
# Chains of the proteins cited; added tags and fusions are not shown.
# UniProt Q0JBA9, entry or part of it: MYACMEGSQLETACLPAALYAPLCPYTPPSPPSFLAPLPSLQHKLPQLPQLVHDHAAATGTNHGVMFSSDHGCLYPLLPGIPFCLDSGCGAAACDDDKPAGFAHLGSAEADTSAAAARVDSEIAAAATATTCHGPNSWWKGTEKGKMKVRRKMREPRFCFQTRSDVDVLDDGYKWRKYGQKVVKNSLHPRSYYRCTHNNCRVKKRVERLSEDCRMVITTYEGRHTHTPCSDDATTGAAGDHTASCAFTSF
# The other results are listed elsewhere or left out.
# Biological target: OsWRKY34 (Oryza sativa, UniProt Q0JBA9 1-250)
# Test: protein-binding microarray (RPBM); PBS, 2% BSA, 51.3 ng/ul salmon testes DNA, 50 uM zinc acetate, 200 nM TF, 25 C, 1 h; high values mean tight binding
# Conditions: protein: recombinant; tags: N-terminal polyhistidine and DsRed monomer fusion (pET32a); label: CyDye5-dUTP incorporated in the synthesized complementary strand; 3' TTTTT single-stranded linker to array surface; dsDNA, one strand shown
# Method in brief: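 In PBS with 2% BSA, salmon testes DNA and 50 µM zinc acetate, 200 nM protein was incubated on a custom Agilent array at 25 °C for 1 h and then washed off. The array had been made double-stranded by primer extension with Cy5-dUTP and blocked with 2% BSA. The proteins were transcription factors fused N-terminally to polyhistidine and DsRed, expressed in E. coli BL21-CodonPlus and purified on Ni–NTA. The binding signal is per-feature fluorescence intensity (arbitrary units) from an Axon 4000B scanner.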
row,Sequence,binding signal
1,TTCATCGTTATCCTAATCTGATTTCAATTCAAAATTGTTCCGGAGTCACCTAGTGCAG,8030 fluorescence intensity (a.u.)
2,ACACTCTCTGATCCCGCTCTCTCTCTCTGCTTCGATTCGACGGAGTCACCTAGTGCAG,11300 fluorescence intensity (a.u.)
3,TGATGGCGCTGCCGAACCTCCGGTACTTCATTGACGCGACCGGAGTCACCTAGTGCAG,8090 fluorescence intensity (a.u.)
4,GTACTCCCTCCGTTTCGAAATATTTAACACCGTTGACTTTCGGAGTCACCTAGTGCAG,17400 fluorescence intensity (a.u.)
5,TGTTCTCTCCTGCCTCCACACTTTCTGGCACGGTACAAAACGGAGTCACCTAGTGCAG,8370 fluorescence intensity (a.u.)
6,CATTCACAACATCAAATTACATCTGCAGAGAGATCGCTCGCGGAGTCACCTAGTGCAG,33900 fluorescence intensity (a.u.)
7,CAAGAACTCACCCTTCTAGCTTCTGTTCGGCCCATCTGGACGGAGTCACCTAGTGCAG,9800 fluorescence intensity (a.u.)
8,TCCCGATCCTGTCGTTCAGGTGATCCCGTATTCAAGTCATCGGAGTCACCTAGTGCAG,9150 fluorescence intensity (a.u.)
9,CCGTTGTATGTCACCAAAATTCGAATATATTTCCTTGCAACGGAGTCACCTAGTGCAG,8670 fluorescence intensity (a.u.)
10,GGAACTGACCTACCGTAGACACCCTCTTGACCTGCCCGGTCGGAGTCACCTAGTGCAG,8950 fluorescence intensity (a.u.)
11,TTCTCCCTACTTATATTATTCCCTCTAATTACATAACGTTCGGAGTCACCTAGTGCAG,8630 fluorescence intensity (a.u.)
12,ACTTCCTTTGTTTCCTTAAGATAATCTGTAAATGCTCGTTCGGAGTCACCTAGTGCAG,10200 fluorescence intensity (a.u.)
13,TATCTTATTCGCGTAACTATTTTTTCCTCAGTTTGAAGGACGGAGTCACCTAGTGCAG,8870 fluorescence intensity (a.u.)
14,TTCTTTTTTCTTTTTTTTTACTGGTGAGAGCAATAGATTACGGAGTCACCTAGTGCAG,8560 fluorescence intensity (a.u.)
15,GGTTGTAGGTGGAGGAGGAGGAGGGGCGGTTCCGGAGTTTCGGAGTCACCTAGTGCAG,22600 fluorescence intensity (a.u.)
16,CAAGCTCCGTTTCGTCTTCGTCTTCGTCTACCTCTGTCATCGGAGTCACCTAGTGCAG,11100 fluorescence intensity (a.u.)
17,CCAGCCGCATACACGCCGGTGTGCCCATTTTGTCAACGCGCGGAGTCACCTAGTGCAG,10200 fluorescence intensity (a.u.)
18,GGCTATACTATTAAACTTGCTCTACTACCATCCATTTATACGGAGTCACCTAGTGCAG,8850 fluorescence intensity (a.u.)
19,AAATTTGACCGCTCTATTTATAGTTAAATTTGTTATTTTTCGGAGTCACCTAGTGCAG,9220 fluorescence intensity (a.u.)
20,TCTGTCTATCTATCTATCTATCTATATATATATATATATACGGAGTCACCTAGTGCAG,9350 fluorescence intensity (a.u.)
21,TTTCTGGTTGAGGGGTACAAATTAGATTCGTTTTACATTTCGGAGTCACCTAGTGCAG,8380 fluorescence intensity (a.u.)

row,Sequence,binding signal
1,ACTACCACTAGGATTGTACACACTGTCATGTCCTGTGCACCGGAGTCACCTAGTGCAG,8470 fluorescence intensity (a.u.)
2,TATCAAGTGACCTAGCGTTCTTGCTGTCGGCTGCCTCATTCGGAGTCACCTAGTGCAG,9460 fluorescence intensity (a.u.)
3,AGTTTGTTCTTGAATATTTTTACACACATACCCATATTTCCGGAGTCACCTAGTGCAG,9750 fluorescence intensity (a.u.)
4,AATCCTAACTTCTATACCAATTTACCTACTAGTCGCCATGCGGAGTCACCTAGTGCAG,9470 fluorescence intensity (a.u.)
5,TCATTGCCTAGTTGCCTCTTGTCTCATCTCTCATCTCTCACGGAGTCACCTAGTGCAG,8340 fluorescence intensity (a.u.)
6,ACCAACGCCACCCGAAGCTTCGGCCCCTGTCTAAACTCCGCGGAGTCACCTAGTGCAG,9610 fluorescence intensity (a.u.)
7,TCTATTCCTGTCAGAATCCTGTGTTTTTTCTATTCCTCTGCGGAGTCACCTAGTGCAG,10900 fluorescence intensity (a.u.)
8,CTCCGATTCTCTTTCACAAATTTTAACCATCATTTTTTTTCGGAGTCACCTAGTGCAG,11600 fluorescence intensity (a.u.)
9,GTTTCTTATAATATGTTCTATAGGCCAACATTTCTGCTTTCGGAGTCACCTAGTGCAG,10300 fluorescence intensity (a.u.)
10,TCCCAAATCTCGTCCTTTTCCATTTTCGACACAATTTTACCGGAGTCACCTAGTGCAG,11700 fluorescence intensity (a.u.)
11,TTCCATTGTATATTCTGTGGTCGGTCGGTACTCAGTTCTTCGGAGTCACCTAGTGCAG,8760 fluorescence intensity (a.u.)
12,TCCCGCGTGTTGTGCTGTGCTGTGCTGGTACTACTCCTTACGGAGTCACCTAGTGCAG,10400 fluorescence intensity (a.u.)
13,CTTTGACTTAATATAACCACCACATTTGCCTTTTGACTTTCGGAGTCACCTAGTGCAG,8540 fluorescence intensity (a.u.)
14,ATGTGGATGGAGTGGGGTTCGAGGGTCATGTCTTGGTCGCCGGAGTCACCTAGTGCAG,8710 fluorescence intensity (a.u.)
15,GCCTCACTCCTTCGCGCCTTCGCCTCCCTACCGCGTGCTACGGAGTCACCTAGTGCAG,10500 fluorescence intensity (a.u.)
16,CACATCAAACCTTTCATACCCACACAATATTTTTATCATACGGAGTCACCTAGTGCAG,8580 fluorescence intensity (a.u.)
17,ACCTGTTCCTTCTATTCTTTTCCTGTGAAAAAATTTTCCTCGGAGTCACCTAGTGCAG,10700 fluorescence intensity (a.u.)
18,ACATCCATCCACTTTTAGGTCTCGTGCGCTACCCCTTTTTCGGAGTCACCTAGTGCAG,10500 fluorescence intensity (a.u.)
19,CTTCTCGCGCACACTAACCAATCCGAGCATCTCGCCTCGCCGGAGTCACCTAGTGCAG,9020 fluorescence intensity (a.u.)
20,TTCTTTTTTTGGCTTCCTTTTTTTTGTGTGTATATATGTACGGAGTCACCTAGTGCAG,13700 fluorescence intensity (a.u.)
21,GGTCGTCGTCTTTGCATTGTCTCCTTGTCCGGTACGTTGGCGGAGTCACCTAGTGCAG,9400 fluorescence intensity (a.u.)

row,Sequence,binding signal
1,GCTTTCCTTCCGTCCGATCGCTTTGCCTTCGCTCATAGCACGGAGTCACCTAGTGCAG,8860 fluorescence intensity (a.u.)
2,AAGCCACAACATGCGCCACAAGCAGCTGCACCCAGTTTTCCGGAGTCACCTAGTGCAG,9580 fluorescence intensity (a.u.)
3,ATTGCATCGCCCATTTCGCTCATGGATCAGTAGGTAGCCACGGAGTCACCTAGTGCAG,8190 fluorescence intensity (a.u.)
4,GCCAAGGTTAGGTAGGATGGTAGAAGTTGATTTTTTATGGCGGAGTCACCTAGTGCAG,8740 fluorescence intensity (a.u.)
5,TAAAGCAATGCACTAATGTTGTTTTCCACGTCCATCCGGCCGGAGTCACCTAGTGCAG,8520 fluorescence intensity (a.u.)
6,GTACCTGAATGAGCGGTACTTGTTTGTTTCTTTTTTATCACGGAGTCACCTAGTGCAG,8190 fluorescence intensity (a.u.)
7,GAGCATCCATTGCTTTTGTTGGTACGTTTCTCAAGTTAACCGGAGTCACCTAGTGCAG,8730 fluorescence intensity (a.u.)
8,ATTCTGCTCGTTCGGTCGTTTTCTTGCGTCCTCGTCGTGTCGGAGTCACCTAGTGCAG,8320 fluorescence intensity (a.u.)
9,TTCGAACGACTCGGCGCTCCATTCTGCCCACCGGCGGTGACGGAGTCACCTAGTGCAG,10200 fluorescence intensity (a.u.)
10,GCTTCCCTTCCCCGCTGCCGCCGCCGCTTTCGGAGTTACACGGAGTCACCTAGTGCAG,8360 fluorescence intensity (a.u.)
11,AAGGGTAATTGTACGTGTGTTGTGAGTATCTATGTTTGTACGGAGTCACCTAGTGCAG,10400 fluorescence intensity (a.u.)
12,TCGTGCTACAGATCTATAGCACACTACTCTTCTCTCTCTTCGGAGTCACCTAGTGCAG,9200 fluorescence intensity (a.u.)
13,GCGCGCCGGCGCTTCTCCCCTTCCCGGGCCTCTTCAAAAACGGAGTCACCTAGTGCAG,8390 fluorescence intensity (a.u.)
14,ATATTTCTATGATTCTATCCCCTCCAGATTTATCGGCGCCCGGAGTCACCTAGTGCAG,8310 fluorescence intensity (a.u.)
15,CTTCAACATCATCTCCGGTGAGCATTCCATTCCATTCCATCGGAGTCACCTAGTGCAG,10200 fluorescence intensity (a.u.)
16,GAAACGGAGTAAGTATTAGTTTATAGCTTTCATATTTTTTCGGAGTCACCTAGTGCAG,8100 fluorescence intensity (a.u.)
17,CTTTTCTTGTTGTCGCTCTTCTCTACATGCGTATGTAATACGGAGTCACCTAGTGCAG,8050 fluorescence intensity (a.u.)
18,TTGCCTCTATTGTTTTCCAGACTGGCTGCTTCTGTAACCCCGGAGTCACCTAGTGCAG,9770 fluorescence intensity (a.u.)
19,GCCGGAGCTCCTCCCTGCTCCCTCTACTGGGTTGGCGGGGCGGAGTCACCTAGTGCAG,8050 fluorescence intensity (a.u.)
20,ATATTTTGGGACGGAGGTAATACTATCACATATCCGGATTCGGAGTCACCTAGTGCAG,8710 fluorescence intensity (a.u.)
21,GGTGTCAATAATCACGTCTCTTTTGATTTTTTATTATAGACGGAGTCACCTAGTGCAG,8340 fluorescence intensity (a.u.)

row,Sequence,binding signal
1,TTTCCACTTACCCATTCTACCATGCTCAGCATACCATTGACGGAGTCACCTAGTGCAG,8790 fluorescence intensity (a.u.)
2,ATTCTCGCCTTCTCGCTCTCTCGTGGCTGGCCGTGGCGGGCGGAGTCACCTAGTGCAG,8680 fluorescence intensity (a.u.)
3,GTGGGCCACCCACCCAACGACCGTTTCACGCATGGCGCACCGGAGTCACCTAGTGCAG,10700 fluorescence intensity (a.u.)
4,CATGGCGAGATTGTACTACTACCTTTCTCACTACACGCCACGGAGTCACCTAGTGCAG,9060 fluorescence intensity (a.u.)
5,GTATCAGAGCCACACTTTCCTGTAGGCTAAACATCTCTTGCGGAGTCACCTAGTGCAG,8250 fluorescence intensity (a.u.)
6,TCCGTCCCATAATACAAGGGATTTTGACTTTTTGGTTGCGCGGAGTCACCTAGTGCAG,8960 fluorescence intensity (a.u.)
7,CCACCATCCTTATCCTTATCTCCTCCACTCATTTCCTTCTCGGAGTCACCTAGTGCAG,15500 fluorescence intensity (a.u.)
8,AGGTATATGTGTGTATGACAGGTGAGACCAAGTATGAATTCGGAGTCACCTAGTGCAG,8970 fluorescence intensity (a.u.)
9,CACCTGCGCCGACCTCCTCGCCGCCGTCTCCACCCTCTCCCGGAGTCACCTAGTGCAG,8180 fluorescence intensity (a.u.)
10,CTTCTAATCCCATCTTTAGTGCATCTACTATCTCACCTTACGGAGTCACCTAGTGCAG,8930 fluorescence intensity (a.u.)
11,TACCTTTTAAATTTATTCTGTGAGAGCACTTCAGTCCATTCGGAGTCACCTAGTGCAG,8310 fluorescence intensity (a.u.)
12,GCTCGTCCACCGTCGCCTCCATCTCCCCTCGCCGCCGGCGCGGAGTCACCTAGTGCAG,8540 fluorescence intensity (a.u.)
13,CGTCCAACTCCAACTCATCCTGGCCGTCCATTCCCGATCACGGAGTCACCTAGTGCAG,14600 fluorescence intensity (a.u.)
14,TTCCTATCTTGCAGGCTTTTCACTTTGAGCTCACGTAGAGCGGAGTCACCTAGTGCAG,9020 fluorescence intensity (a.u.)
15,CCTTTGTTTTTTCCCCTTTTCCTTGCCACTGCCTGTTAAACGGAGTCACCTAGTGCAG,8950 fluorescence intensity (a.u.)
16,CGACGTGGTGTTCGACGAAGGGCGAGGGTGGGTATGGGACCGGAGTCACCTAGTGCAG,8110 fluorescence intensity (a.u.)
17,ACCAGTCACCGGCCCAGCCACACAACACAATACAGTCTGCCGGAGTCACCTAGTGCAG,9570 fluorescence intensity (a.u.)
18,CATCTGGCGCGTGCGCGCCCATTAGCATTTTCGGACTCTCCGGAGTCACCTAGTGCAG,8850 fluorescence intensity (a.u.)
19,GAGGAGGCTGCAGTCCTAACACGTGGCGCAATTTTTTCCCCGGAGTCACCTAGTGCAG,9960 fluorescence intensity (a.u.)
20,ACGCGCCTGTCTCCTACACGGGGCCCCGGCCCCATCTGATCGGAGTCACCTAGTGCAG,11100 fluorescence intensity (a.u.)
21,AACATTGAATTGGATCGTTGACTTGGACGAGTCATCGCCGCGGAGTCACCTAGTGCAG,13300 fluorescence intensity (a.u.)

# Copied from the list:
# In binding signal, TCCGTCCCATAATACAAGGGATTTTGACTTTTTGGTTGCGCGGAGTCACCTAGTGCAG is listed with 8960 fluorescence intensity (a.u.)
# In binding signal, ATATTTTGGGACGGAGGTAATACTATCACATATCCGGATTCGGAGTCACCTAGTGCAG is listed with 8710 fluorescence intensity (a.u.)

# A second format for part of the listing above.
row | Sequence | binding signal
1 | TTTCCACTTACCCATTCTACCATGCTCAGCATACCATTGACGGAGTCACCTAGTGCAG | 8790 fluorescence intensity (a.u.)
14 | TTCCTATCTTGCAGGCTTTTCACTTTGAGCTCACGTAGAGCGGAGTCACCTAGTGCAG | 9020 fluorescence intensity (a.u.)
20 | ACGCGCCTGTCTCCTACACGGGGCCCCGGCCCCATCTGATCGGAGTCACCTAGTGCAG | 11100 fluorescence intensity (a.u.)
